{"source": "PubChem BioAssay AID196", "about": "(DTP/NCI, 2004)", "test_system": "BDF1 mice, intracerebral B16 melanoma, median survival T/C", "test": "NCI In Vivo Anticancer Drug Screen. Data for tumor model B16 Melanoma (intracerebral) in B6D2F1 (BDF1) mice", "conditions": "T/C endpoint: median survival time, schedule: Q01DX009 (ip), vehicle: water, higher T/C = longer survival", "description": "The antitumor activity of compounds was measured in mice bearing transplantable tumors. Survival or tumor size were measured and the results are expressed as the measurement made in the treated group (T) divided by the measurement made in the vehicle treated control group (C). The tumor model used in this assay is B16 Melanoma (intracerebral) in B6D2F1 (BDF1) mice", "note": "The list is a part of this screen's results and no random one: it covers a few groups of compounds. Not every dose and run of a compound is shown. T/C gives the treated animals as a percentage of the vehicle group. Where survival is the endpoint, the PubChem record calls one and a half times the control and up active, and a quarter to a half above the control has no call in these data; cut-offs in other NCI protocols can differ. Some entries show no survivor count and are marked so; the dose need not have been tolerated. Schedule codes are those of the source, read here as Q, the interval in days (D) or hours (H), X, the number of doses."}
{"compound": "CN(CCCl)CCCl", "values": [{"measurement": "T/C", "setting": "dose: 0.25 mg/kg/injection", "value": "100 % of control [survivor count not shown]"}, {"measurement": "T/C", "setting": "dose: 0.5 mg/kg/injection", "value": "100 % of control [survivor count not shown]"}]}
